Data as given in PubChem BioAssay AID652272 (Drosophila RNAi Screening Center, 2013)
Assay: 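Finding fly genes that regulate Hedgehog signal transduction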 (primary screen). Cells: Drosophila clone 8 (Cl8) cells. Reagents: long dsRNA against Drosophila genes. Measurement: 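Firefly light from a Hedgehog-responsive ptc promoter reporter and Renilla reference light, both read on a plate reader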. Scale: firefly Hh reporter signal: higher = more ptc reporter light; Renilla reference signal: higher = more Renilla control light. Hit rule: 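Called a hit if the two-replicate mean z-score lies below -2 or above +3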. Calls: active = hit: reporter lowered or raised; inactive = not a hit.
In all, the deposit lists about 21,000 reagents; this is an unselected part of those with a known target gene and a result. Of all reagents, 503 (2.4%) were called active. 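Raw plate light values, not normalised; calls rest on replicate z-scores that were not deposited; hits include reporter decreases as well as increases.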 The record does not give: the amount of reagent, the time to read-out.

target	amplicon	firefly Hh reporter signal, replicate 1	firefly Hh reporter signal, replicate 2	firefly Hh reporter signal, replicate 3	Renilla reference signal, replicate 1	Renilla reference signal, replicate 2	activity call
Pde9 (Phosphodiesterase 9)	DRSC19746	75131	1.75e5		2888	7187	inactive
Pde9 (Phosphodiesterase 9)	DRSC19874	76007	2.35e5		1528	7365	inactive
Pde9 (Phosphodiesterase 9)	DRSC19875	64402	2.11e5		1548	8484	inactive
Pde9 (Phosphodiesterase 9)	DRSC19876	97750	3.12e5		3499	12621	inactive
crq (croquemort)	DRSC00810	1.04e5	1.17e5		2401	2691	inactive
SdhC (Succinate dehydrogenase, subunit C)	DRSC16088	91896	1.62e5		1489	4789	inactive
CG17075	DRSC00483	69344	54347		2780	2285	inactive
papi	DRSC00693	91926	60278		3569	2391	inactive
mus101 (mutagen-sensitive 101)	DRSC19388	1.18e5	2.30e5		3478	10165	inactive
obst-F (obstructor-F)	DRSC10805	99044	97520		3025	2930	inactive
CG10597	DRSC19357	1.25e5	5.76e5	2.53e5	4134	4458	inactive
CG43066	DRSC06927	79456	6.31e5	74310	2163	32476	inactive
CG12546	DRSC11676	1.31e5	1.16e5		4368	2790	inactive
RpS14a (Ribosomal protein S14a)	DRSC18710	75655	28016		5746	1474	active
toy (twin of eyeless)	DRSC17222	87325	89913		1777	3568	inactive
CG32772	DRSC18052	2.72e5	1.18e5	3.53e5	1813	3361	inactive
CG32772	DRSC18406	1.31e5	1.19e5		2763	2390	inactive
CG8245	DRSC04901	1.26e5	95415		2324	7524	inactive
gsb (gooseberry)	DRSC04692	78361	69523		1555	5457	inactive
CG2750	DRSC19867	75405	4.68e5	1.95e5	1265	3253	inactive
Fdx2 (Ferredoxin 2)	DRSC08306	1.32e5	56892		4761	217	inactive
CG14105	DRSC10107	40464	33958	53338	2624	3731	inactive
CG34304 (retired record)	DRSC12810	1.69e5			2780		inactive
